# Measurements from US20090264483A1, “METHODS OF USING PPAR-gamma AGONISTS AND CASPASE-DEPENDENT CHEMOTHERAPEUTIC AGENTS FOR THE TREATMENT OF CANCER” (CEDARS-SINAI MEDICAL CENTER, priority 2006, published 2009).
# For part of these data: For at least one compound, name, drawing or mass did not settle the structure. Some entries share one result that the patent states for a list of compounds.
# What was measured:
# Type in all cases: cell-based, human
# [1] = system: STAT3, pY705-STAT3, FLIP, Bcl-2, Bax, pS392-p53, PTP1B, SHP-1; test: Western blot of glioma cell protein extracts
# Source text: Rabbit polyclonal Abs against DR4, DR5, and PPARγ were obtained from Cayman Chemical. Mouse monoclonal Abs against STAT3, phosphotyrosine 705 STAT3 (pY705-STAT3), which is an activated form of STAT3, Bax, and Bcl-2 were obtained from Pharmingen. Rabbit polyclonal Abs against p53 and phosphor-Ser-392-p53 (pS392-p53) were obtained from Cell Signaling Technology (Beverly, Mass.). Mouse monoclonal Abs against PTP1B (PTPase1B; AE4-2J) and Src homology 2-containing PTP-1 (SHP1; 1SH01) and rabbit polyclonal Ab against FLIP were obtained from Calbiochem. Mouse monoclonal Ab of β-tubulin was obtained from Sigma. Horseradish peroxidase-linked Abs of sheep anti-mouse IgG and donkey anti-rabbit IgG were obtained from Amersham Biosciences.
# Samples were extracted with buffer containing 1% Triton X-100, 150 mM NaCl, 50 mM Tris (pH 7.5), and 1 mM phenylmethylsulfonyl fluoride (Roche Applied Science) and were subjected to SDS-PAGE with 30 μg of general protein loading into each lane on a 10% polyacrylamide gel. Electrophoretic transfer to nitrocellulose membranes (Amersham Biosciences) was followed by immunoblotting. The signal was detected by using an ECL detection system (Amersham Biosciences).
# [2] = system: LN-18, U-87MG, and MG-328 glioma cells; test: Cell viability assay (Ann/PI staining, FACS) with TRAIL; settings: TG 30 μM over 48 h, without rTRAIL
# Experimental: (§1) Treatment of cells with TG, GW, PTPI, and/or SHPI for 24 h was followed by treatment with rTRAIL, VP16 or Taxol, and all the cells, including cells that had not adhered, were harvested after 24 h (48 h). An annexin V-fluorescein isothiocyanate apoptosis detection kit I (Pharmingen) was used for viability assay of the cells. Cells were stained with annexin V-fluorescein isothiocyanate (Ann) and propidium iodide (PI) according to the manufacturer's protocol and were analyzed by FACS (Pharmingen). Cells that stained negative for both Ann and PI were defined as viable cells for viability assay.
# caspase-3, -8, and -9 = test: Caspase activity assay in U-87MG treated with VP16 or Taxol; settings: TG 30 μM for 24 h
# Experimental: Activity of caspase-3, -8, and -9 was measured using caspase-3/CPP32, FLICE/caspase-8, and APOPCYTO/caspase-9 […] assay kits, respectively, from Medical and Biological Laboratories Co. (Nagoya, Japan). Briefly, the treatment of cells with TG, GW, and/or PTPI for 24 h was followed by treatment with rTRAIL, VP 16 or Taxol. After 2 h (24 h) of treatment, all the cells were harvested, and samples were extracted with Cell Lysis Buffer. Concurrently, a sample for a negative control was extracted from the cells without apoptosis induction. A standard curve using the absorbance of p-nitroanilide standards was constructed, and then the specific activities on each sample were calculated according to the manufacturer's protocol.
# (§2) Based on this hypothesis, a determination was sought whether TG enhances the cytotoxic activities of etoposide (VP16) and paclitaxel (Taxol), which are known to involve activation of caspase-2, -8, -9, and -10 during their apoptosis induction (Lin et al. (2004) J. Biol. Chem. 279, 40755-40761.; Perkins et al. (2000) Cancer Res. 60, 1645-1653.; Park et al. (2004) J. Biol. Chem. 279, 51057-51067.). To confirm this, treatment of U-87MG with TG and/or PTPI was followed by treatment with VP16 (0.01-10 μM) or Taxol (0.005-5 μM). The cells were then subjected to cell viability (FIGS. 7, A and B) and caspase activity assays (FIGS. 7, C and D).
# U-87MG cells = test: Cell viability assay (Ann/PI staining, FACS) with VP16 or Taxol; settings: 5-day cell cultures, U-87MG (not shown)
# Experimental: as §1, §2
# [3] = TG 30 μM, LN-18, U-87MG, MG-328
compound,measurement,setting,value
"Cc1c(C)c2c(c(C)c1O)CCC(C)(COc1ccc(CC3SC(=O)NC3=O)cc1)O2 (stereo not drawn) [TG, troglitazone]",expression levels of pS392-p53 or Bax,"[1]; MG-328, TG 30 μM and/or GW 20 μM for 24 h",no significant change
same,pS392-p53 expression,"[1]; TG 30 μM for 24 h, LN-18 and U-87MG",up-regulation
same,Bax expression levels,"[1]; TG 30 μM, LN-18 (p53 mutant) and MG-328",not altered
same,FLIP and Bcl-2 protein expression,[1]; [3],diminished
same,pY705-STAT3 expression,[1]; [3],down-regulation
same,Bax expression levels,"[1]; TG 30 μM, U-87MG (p53 wild type)",increased
same,effect on SHP-1 expression,"[1]; TG 30 μM, all gliomas",negligible effect
same,"apoptotic death of glioma cells, agent alone",[2],did not induce apoptotic death
same,effect on caspase activity with Taxol,"caspase-3, -8, and -9; then Taxol 5 μM for 24 h",positive activities
same,effect on caspase activity with VP16,"caspase-3, -8, and -9; then VP16 10 μM for 24 h",positive activities
"CC(=O)O[C@H]1C(=O)[C@@]2(C)[C@H]([C@H](OC(=O)c3ccccc3)[C@]3(O)C[C@H](OC(=O)[C@H](O)[C@@H](NC(=O)c4ccccc4)c4ccccc4)C(C)=C1C3(C)C)[C@]1(OC(C)=O)CO[C@@H]1C[C@@H]2O [Taxol, paclitaxel]",cells killed in the TG and TG/PTPI treatment groups,U-87MG cells; Taxol 5 μM,more than 95%
"COc1cc([C@@H]2c3cc4c(cc3[C@@H](O[C@@H]3O[C@@H]5CO[C@@H](C)O[C@H]5[C@H](O)[C@H]3O)[C@H]3COC(=O)[C@H]23)OCO4)cc(OC)c1O [VP16, Etoposide]",cells killed in the TG and TG/PTPI treatment groups,U-87MG cells; VP16 10 μM,more than 95%
